Data published in the supplement of paper PMC11732987, “Enantioselective OTUD7B fragment discovery through chemoproteomics screening and high-throughput optimisation” (Communications Chemistry, 2025).
The list shows a part of the results. The data scatter; read single values as rough.

Target: T1, HERC2 C1825 (UniProt O95714)
T1 sequence (whole entry): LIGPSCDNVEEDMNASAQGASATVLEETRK
Assay: log2 mean competition ratio of IA-DTB cysteine labelling (DMSO/compound) (log2 ratio); higher = stronger cysteine engagement by compound
Conditions: 50 µM; treatment time: 4 h; cell line lysate: HEK293T
Protocol: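 IA-DTB competitive cysteine chemoproteomics in HEK293T RIPA lysate. Lysates were treated with compound 29 or 30 at 50 or 200 µM for 4 h, then IA-DTB (500 µM, 1 h), trypsin-digested, NeutrAvidin-enriched and analysed by diaPASEF. Competition ratio = intensity DMSO / intensity compound (n=4 treated, n=64 DMSO); binding: mean log2 CR ≥ 1 and p ≤ 0.05 plus QC filters. Target is the cysteine site.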

| SMILES | log2 mean competition ratio |
| --- | --- |
| O=C(CCl)N[C@H]1CCCc2ccccc21 | -0.269 |
| O=C(CCl)N[C@@H]1CCCc2ccccc21 | -0.457 |

Same assay, conditions: 200 µM; treatment time: 4 h; cell line lysate: HEK293T

| SMILES | log2 mean competition ratio |
| --- | --- |
| O=C(CCl)N[C@H]1CCCc2ccccc21 | 0.0653 |
| O=C(CCl)N[C@@H]1CCCc2ccccc21 | -0.0786 |
